These are yes or no findings as the source states them, for the method shown. Binding seen in cells or lysates may run through a third protein. Some results given as binding are weak or reduced against the parent protein; the word gives no strength. For part of these data: Sequences can lack the tags named with a protein.

The chains behind the UniProt entries cited, without tags or fusion partners. Where a name states a change or a piece, a line headed by the entry shows the natural chain unless it says otherwise. A line that says so, or that is headed by a name, gives the form on record, which may keep a tag or linker. Residues count along the entry.
UniProt P62993, residues 60-152: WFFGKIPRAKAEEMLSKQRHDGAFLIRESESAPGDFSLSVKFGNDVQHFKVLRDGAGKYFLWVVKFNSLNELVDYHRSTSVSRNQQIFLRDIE
Tie2/Tie-2/Tek receptor tyrosine kinase, wild type (Q02858, residues 23-1122): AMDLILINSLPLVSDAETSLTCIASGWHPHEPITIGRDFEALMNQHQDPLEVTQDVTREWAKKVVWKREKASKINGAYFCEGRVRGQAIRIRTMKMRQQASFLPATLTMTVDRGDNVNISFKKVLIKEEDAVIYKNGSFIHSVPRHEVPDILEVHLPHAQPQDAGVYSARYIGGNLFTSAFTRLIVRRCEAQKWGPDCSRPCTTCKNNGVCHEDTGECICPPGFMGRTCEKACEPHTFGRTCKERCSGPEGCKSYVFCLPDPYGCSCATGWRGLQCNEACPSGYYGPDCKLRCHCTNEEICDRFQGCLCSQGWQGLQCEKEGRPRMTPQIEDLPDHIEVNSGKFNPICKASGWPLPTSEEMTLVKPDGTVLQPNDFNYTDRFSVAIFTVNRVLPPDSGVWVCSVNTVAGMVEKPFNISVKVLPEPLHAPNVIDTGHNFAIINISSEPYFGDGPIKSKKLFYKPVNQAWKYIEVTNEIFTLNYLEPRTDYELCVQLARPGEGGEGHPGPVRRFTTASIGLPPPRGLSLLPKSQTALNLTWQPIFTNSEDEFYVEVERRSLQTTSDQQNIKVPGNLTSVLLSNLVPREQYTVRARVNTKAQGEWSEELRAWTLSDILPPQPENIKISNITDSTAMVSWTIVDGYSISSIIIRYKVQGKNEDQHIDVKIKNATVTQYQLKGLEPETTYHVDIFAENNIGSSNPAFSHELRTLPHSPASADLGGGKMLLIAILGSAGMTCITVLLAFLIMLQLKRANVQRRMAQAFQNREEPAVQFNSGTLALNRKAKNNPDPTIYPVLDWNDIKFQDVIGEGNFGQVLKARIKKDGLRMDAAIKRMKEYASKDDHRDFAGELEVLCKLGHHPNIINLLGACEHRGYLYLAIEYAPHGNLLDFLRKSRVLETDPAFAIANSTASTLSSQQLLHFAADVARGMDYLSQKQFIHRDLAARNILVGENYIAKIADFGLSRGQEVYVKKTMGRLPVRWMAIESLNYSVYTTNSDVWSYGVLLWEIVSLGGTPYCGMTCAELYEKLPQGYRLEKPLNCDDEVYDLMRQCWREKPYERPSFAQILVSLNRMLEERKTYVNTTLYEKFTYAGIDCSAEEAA
Tie2 K853A, kinase inactive mutant (Q02858, form named): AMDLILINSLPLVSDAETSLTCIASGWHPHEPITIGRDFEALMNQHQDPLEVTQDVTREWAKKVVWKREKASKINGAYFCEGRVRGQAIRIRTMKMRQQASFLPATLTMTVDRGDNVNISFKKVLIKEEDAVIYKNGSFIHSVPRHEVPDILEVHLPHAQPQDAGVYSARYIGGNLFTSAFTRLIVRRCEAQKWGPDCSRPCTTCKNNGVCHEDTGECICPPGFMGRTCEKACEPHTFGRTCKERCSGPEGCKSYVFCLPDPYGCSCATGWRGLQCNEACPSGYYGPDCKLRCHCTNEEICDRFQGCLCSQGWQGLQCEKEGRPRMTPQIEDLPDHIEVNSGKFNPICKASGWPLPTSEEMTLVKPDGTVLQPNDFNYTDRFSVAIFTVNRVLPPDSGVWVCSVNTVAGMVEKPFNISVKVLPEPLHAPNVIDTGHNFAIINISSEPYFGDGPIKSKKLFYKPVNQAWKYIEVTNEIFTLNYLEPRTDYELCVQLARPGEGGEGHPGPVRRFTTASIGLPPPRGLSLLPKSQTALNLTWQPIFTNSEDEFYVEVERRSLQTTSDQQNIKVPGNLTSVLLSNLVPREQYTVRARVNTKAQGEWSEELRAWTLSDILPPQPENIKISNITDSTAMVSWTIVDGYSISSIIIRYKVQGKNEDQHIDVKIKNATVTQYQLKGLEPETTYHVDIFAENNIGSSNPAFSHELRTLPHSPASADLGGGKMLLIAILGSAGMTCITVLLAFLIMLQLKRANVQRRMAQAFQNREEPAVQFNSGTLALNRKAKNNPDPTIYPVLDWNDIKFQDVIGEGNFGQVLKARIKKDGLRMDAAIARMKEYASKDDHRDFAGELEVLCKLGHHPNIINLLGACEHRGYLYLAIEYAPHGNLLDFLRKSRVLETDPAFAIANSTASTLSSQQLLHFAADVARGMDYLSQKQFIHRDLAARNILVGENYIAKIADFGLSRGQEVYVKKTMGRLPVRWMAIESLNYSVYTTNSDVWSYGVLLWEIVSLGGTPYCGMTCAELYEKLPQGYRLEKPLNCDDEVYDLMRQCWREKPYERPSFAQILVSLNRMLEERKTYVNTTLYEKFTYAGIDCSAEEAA

Here are results for two substances from PMC2978215.

One test has as its target T1, GST-SH2 domain of Grb14 (UniProt Q14449).
T1 sequence: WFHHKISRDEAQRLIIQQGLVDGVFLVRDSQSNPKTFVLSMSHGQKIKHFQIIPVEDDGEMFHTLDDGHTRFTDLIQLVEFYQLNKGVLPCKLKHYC
Kind of test: pull-down; GST-SH2 domains purified from E. coli and immobilized on glutathione-Sepharose beads, incubated with lysates of HEK293T cells transiently expressing WT Tie2 or K853A; complexes resolved by SDS-PAGE and immunoblotted with anti-Tie2; only the target purified.

In another test the target is GST-SH2 domain of Grb2 (UniProt P62993). Described as above.

Take “Tie2 K853A, kinase inactive mutant (from UniProt Q02858 23-1122) (receptor)”: in the test with GST-SH2 domain of Grb14, the binding entry is on record as “no binding”.

With “Tie2/Tie-2/Tek receptor tyrosine kinase, wild type (from UniProt Q02858 23-1122)”, the binding entry with GST-SH2 domain of Grb14 and with GST-SH2 domain of Grb2 was “binds” each time.
